Source: ChEMBL document CHEMBL3988442, “University of Dundee, Small-Polar-MMV Screening Library” (2021).

Amino acid sequences for entries named in this document (tags omitted).
UniProt E9BF75, entry or part of it: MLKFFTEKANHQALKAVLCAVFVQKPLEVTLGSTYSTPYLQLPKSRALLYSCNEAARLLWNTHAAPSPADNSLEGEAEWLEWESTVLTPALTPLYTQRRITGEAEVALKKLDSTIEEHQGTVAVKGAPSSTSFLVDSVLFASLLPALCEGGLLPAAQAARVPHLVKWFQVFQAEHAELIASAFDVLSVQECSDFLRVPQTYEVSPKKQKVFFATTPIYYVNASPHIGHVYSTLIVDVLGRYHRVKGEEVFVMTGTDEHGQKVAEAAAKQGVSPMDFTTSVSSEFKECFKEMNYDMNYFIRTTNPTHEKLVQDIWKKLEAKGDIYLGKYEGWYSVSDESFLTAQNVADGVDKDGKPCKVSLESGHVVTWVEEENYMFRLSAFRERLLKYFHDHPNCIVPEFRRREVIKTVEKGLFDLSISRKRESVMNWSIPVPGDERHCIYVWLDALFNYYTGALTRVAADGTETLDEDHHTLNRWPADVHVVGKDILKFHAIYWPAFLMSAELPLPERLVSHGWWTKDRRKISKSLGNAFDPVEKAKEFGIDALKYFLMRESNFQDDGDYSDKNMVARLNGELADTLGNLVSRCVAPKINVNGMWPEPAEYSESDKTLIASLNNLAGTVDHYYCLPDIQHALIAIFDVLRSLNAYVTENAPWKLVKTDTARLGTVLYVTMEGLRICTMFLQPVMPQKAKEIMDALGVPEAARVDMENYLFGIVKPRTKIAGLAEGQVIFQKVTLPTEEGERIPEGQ

A: 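Methionyl-tRNA synthetase (putative), Leishmania donovani (UniProt E9BF75). Primary screen of methionyl-tRNA synthetase; the read-out is not stated. The test concentration is not given. The values are filed as inhibition. Size under these conditions: about 68,000 compounds, about 24 of them at 50% or above in at least one test.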
B: 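Assay on Mycobacterium tuberculosis, filed only as a heat shock assay from Cornell; the read-out is not stated. The concentration is filed as 10 mM, unlikely as a test dose, so the dose is not known. Direction is inferred from retests: higher values go with stronger inhibition. Size under these conditions: about 69,000 compounds, about 930 of them at 50% or above in at least one test.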

All values are in %. The controls that fix the scale are not given in the record; negative values are as filed. This is an unselected part of the compounds tested. A dash means the value is not listed here; it may have been measured.

| # | compound | A | B |
|---|---|---|---|
| 1 | `O=C(c1ccoc1)N1CCn2nc(CN3CCSCC3)cc2C1` | -0.2457% | -14.55% |
| 2 | `CN(CCCC1CCCC1)C(=O)c1cc(CN2CCC(O)CC2)on1` | 2.667% | -15.65% |
| 3 | `CSCc1nc(CCNC(=O)C(N)c2c(C)n[nH]c2C)cs1` (centres undefined) | 13.43% | 16.02% |
| 4 | `N#CC1(C(=O)N2CCN(c3nccs3)CC2)CCCCC1` | 20.41% | 1.988% |
| 5 | `Cc1ccc([C@@H]2CN(C(=O)c3cc(C)n[nH]3)C[C@H]2NC(=O)C2CC2)cc1` | 0% | 5.768% |
| 6 | `O=C(CCn1cncn1)NCCOc1cccc(Cl)c1` | 10.79% | 5.543% |
| 7 | `CC(NC(=O)NCCCn1cncn1)c1ccc2c(c1)OCCO2` (centres undefined) | 8.571% | 4.28% |
| 8 | `CCN1CC(C(=O)NCc2nn(CC)c3ccccc23)CCC1=O` (centres undefined) | 3.194% | -19.75% |
| 9 | `[H][C@@]12CN(Cc3ccccn3)C(=O)N1CCN(C1CCN(C(C)=O)CC1)C2` | - | -12.91% |
| 10 | `CC(C)(C)NC(=O)CN1CCCNCC1` | 9.322% | -24.51% |
| 11 | `O=C(c1cccnc1-n1cncn1)N1CCc2ccccc2C1` | 9.783% | -21.08% |
| 12 | `Cc1ccc(CNC(=O)c2cc(Cn3ccnc3C(C)C)[nH]n2)o1` | -0.2874% | -24.71% |
| 13 | `CCn1c(C)nnc1SCCNC(=O)CC1CCc2ccccc21` (centres undefined) | 8.871% | -4.663% |
| 14 | `N#Cc1ccc(OCCN2CCc3c(ncn3C3CC3)C2)cc1` | 11.74% | -7.37% |
| 15 | `NS(=O)(=O)c1ccc(NCc2ccccc2F)cc1C(F)(F)F` | 3.686% | 23.49% |
| 16 | `CC1c2ccsc2CCN1Cc1cc2c(cc1O)OCO2` (centres undefined) | 12.9% | 7.139% |
| 17 | `CCCN1CCN(Cc2cccc(OC)c2)[C@H]2CS(=O)(=O)C[C@H]21` | 12.42% | - |
| 18 | `Cc1cccc2nc(CN3CCCC(Cn4ccnn4)C3)cc(=O)n12` (centres undefined) | 6.72% | -43.64% |
| 19 | `c1ccc(CNCC2Cn3nncc3CO2)nc1` (centres undefined) | 7.958% | 2.904% |
| 20 | `COC(=O)c1ccoc1CN(C)Cc1cc(OC)c(OC)cc1C` | -4.636% | -13.91% |
| 21 | `COc1cc(COCC2CCN(Cc3ccccn3)CC2)cc(OC)c1.O=C(O)C(=O)O` | - | -10.83% |
| 22 | `Cc1nn(C)c(=O)c2nn(-c3ccc(F)cc3)c(C)c12` | 3.753% | -12.85% |
| 23 | `Cc1ccc(C(=O)NCCC2CCN(C)CC2)cc1N(C)S(C)(=O)=O` | 5.167% | -7.22% |
| 24 | `COCCc1noc(CN2CCC3(CCCO3)CCC2=O)n1` (centres undefined) | 2.793% | -6.524% |
| 25 | `Cc1ncnc2c1CCN(c1ccccn1)CC2.O=C(O)C(F)(F)F` | - | -7.785% |
| 26 | `CNC(=O)NC(=O)CN1CCC(c2c[nH]c3ccc(OC)cc23)CC1` | 17.56% | 3.465% |
| 27 | `COCC(=O)N1CCC2(CC1)CC(c1cnn(C)c1)C(=O)N2` (centres undefined) | 7.801% | 18.97% |
| 28 | `c1ccc(-n2cc(CN3CCCC3Cn3cccn3)nn2)cc1` (centres undefined) | 22.16% | 11.74% |
| 29 | `CNS(=O)(=O)C1CCN(c2cc(C(C)C)nc(C(C)C)n2)C1` (centres undefined) | 17.02% | -9.401% |
| 30 | `Clc1ccccc1-c1nc(CNC2CCc3ncnn3C2)cs1` (centres undefined) | 7.975% | -12.89% |
| 31 | `N#Cc1nc(COc2ccc3c(c2)OCO3)oc1N1CCCCCC1` | -2.727% | 7.03% |
| 32 | `CC(C)CCC1=NC2(CCN(C(=O)N3CCN(C)CC3)CC2)C(=O)N1` | 4.337% | 15.27% |
| 33 | `O=C(O)C(F)(F)F.O=C1CCC2(CCN(c3ncc(F)cn3)CC2)N1Cc1ccncc1` | - | 14% |
| 34 | `CC(=O)N1[C@H](CN(C)C)C[C@@H]2CN(C(=O)c3ccsc3)CC[C@@H]21` | 12.32% | - |
| 35 | `Cc1ccc2c(c1)OCCCC2NCc1nccn1CC(C)C` (centres undefined) | 7.246% | 101.9% |
| 36 | `CS(=O)(=O)CC(=O)N1C[C@H]2CCC[C@@]2(COCc2ccncc2)C1` | 0% | - |
| 37 | `Cc1nn(C)c(C)c1-c1cnc(CC2CCNC2)cn1` (centres undefined) | 14.15% | -9.014% |
| 38 | `CC(C)OCc1nn(C)c2c1CCN(Cc1ccco1)C2.O=C(O)C(F)(F)F` | - | -16.9% |
| 39 | `[H][C@@]12CN(C(=O)[C@H]3CCCO3)C[C@]1([H])C(=O)N(CC1CC1)C2` | - | -14.08% |
| 40 | `COCCC(=O)N1CCC2(CCCN2Cc2ccccc2)C1` (centres undefined) | 6.587% | -10.4% |
| 41 | `Nc1cc(N2CCC(c3cc(Cc4ccccc4)n[nH]3)CC2)ccn1` | 27.17% | 5.156% |
| 42 | `OC(CN(Cc1ccccc1)Cc1ccncc1)c1ccco1` (centres undefined) | 11.88% | -2.907% |
| 43 | `COC(=O)C1CN(Cc2ccccc2C(C)(C)C#N)CCO1` (centres undefined) | 11.85% | -4.081% |
| 44 | `O=C(c1csc(-c2ncccn2)n1)N1CCN2CCCCC2C1` (centres undefined) | 12.93% | 3.857% |
| 45 | `CN(Cc1noc2c1CCCC2)C(=O)Nc1ccc2oc(=O)n(C)c2c1` | 15.46% | 1.547% |
| 46 | `COC(C)(C)CNC(=O)N(C)Cc1nc(-c2ccccc2)c[nH]1` | 1.761% | -9.165% |

For reference, 3 entries once more:

compound,A,B
CS(=O)(=O)CC(=O)N1C[C@H]2CCC[C@@]2(COCc2ccncc2)C1,0%,-
Cc1ccc([C@@H]2CN(C(=O)c3cc(C)n[nH]3)C[C@H]2NC(=O)C2CC2)cc1,0%,5.768%
COC(=O)C1CN(Cc2ccccc2C(C)(C)C#N)CCO1 (centres undefined),11.85%,-4.081%